According to article PMC2824034, “The indispensable N-terminal half of eIF3j/HCR1 co-operates with its structurally conserved binding partner eIF3b/PRT1-RRM and eIF1A in stringent AUG selection” (Journal of molecular biology, 2010):
Results are given in words; binding and its absence hold for the method and conditions named. Binding seen in cells or lysates may run through a third protein. For some assays here: Binding calls can cover weak binding; strength is not graded here.

The chains behind the UniProt entries cited, without tags or fusion partners. Where a name states a change or a piece, a line headed by the entry shows the natural chain unless it says otherwise. Residues count along the entry.
UniProt Q05775: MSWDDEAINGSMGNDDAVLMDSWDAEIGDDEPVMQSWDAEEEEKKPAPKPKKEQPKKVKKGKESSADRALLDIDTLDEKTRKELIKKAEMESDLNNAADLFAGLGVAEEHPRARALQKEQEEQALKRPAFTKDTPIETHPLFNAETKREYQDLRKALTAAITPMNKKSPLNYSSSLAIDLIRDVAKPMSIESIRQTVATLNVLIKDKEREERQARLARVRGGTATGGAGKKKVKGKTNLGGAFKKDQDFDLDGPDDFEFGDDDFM
GST-j/hcr1-NTD [1-135]: residues 1-135 of Q05775
GST-j/hcr1-CTD [136-265]: residues 136-265 of Q05775
UniProt P06103: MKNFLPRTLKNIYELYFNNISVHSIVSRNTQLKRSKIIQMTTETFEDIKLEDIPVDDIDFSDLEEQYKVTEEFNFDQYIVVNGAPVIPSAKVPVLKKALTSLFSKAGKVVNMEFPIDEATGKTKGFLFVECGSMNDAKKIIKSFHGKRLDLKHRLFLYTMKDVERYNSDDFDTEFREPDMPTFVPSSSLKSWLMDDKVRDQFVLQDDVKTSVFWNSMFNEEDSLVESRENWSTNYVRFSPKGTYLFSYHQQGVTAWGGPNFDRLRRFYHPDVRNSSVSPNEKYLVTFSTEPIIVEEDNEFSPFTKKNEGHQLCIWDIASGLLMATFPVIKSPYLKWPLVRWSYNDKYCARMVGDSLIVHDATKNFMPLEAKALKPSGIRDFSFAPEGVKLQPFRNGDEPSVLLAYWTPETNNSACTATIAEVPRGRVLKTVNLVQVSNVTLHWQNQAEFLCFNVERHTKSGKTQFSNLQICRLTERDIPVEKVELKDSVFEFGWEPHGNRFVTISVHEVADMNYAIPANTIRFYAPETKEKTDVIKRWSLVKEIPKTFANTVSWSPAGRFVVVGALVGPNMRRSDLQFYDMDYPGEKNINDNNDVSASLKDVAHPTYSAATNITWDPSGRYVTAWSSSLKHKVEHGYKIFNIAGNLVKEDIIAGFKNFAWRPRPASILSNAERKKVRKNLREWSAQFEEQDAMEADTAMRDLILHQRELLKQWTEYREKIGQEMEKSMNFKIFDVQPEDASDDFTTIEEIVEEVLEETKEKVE
UniProt P38431: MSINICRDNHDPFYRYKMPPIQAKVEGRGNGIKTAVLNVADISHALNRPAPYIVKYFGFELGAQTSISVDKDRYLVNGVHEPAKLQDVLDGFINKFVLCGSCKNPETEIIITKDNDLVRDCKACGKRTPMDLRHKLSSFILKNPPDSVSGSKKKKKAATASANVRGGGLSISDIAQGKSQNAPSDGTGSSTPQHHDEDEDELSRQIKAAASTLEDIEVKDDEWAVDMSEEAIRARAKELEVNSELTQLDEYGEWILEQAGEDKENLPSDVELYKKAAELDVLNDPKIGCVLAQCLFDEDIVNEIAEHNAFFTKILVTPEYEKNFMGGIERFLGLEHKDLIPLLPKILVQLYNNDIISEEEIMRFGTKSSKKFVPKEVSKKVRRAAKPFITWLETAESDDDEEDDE

How the values were obtained:
[1] = biological target: GST-j/hcr1-CTD [136-265] (S. cerevisiae) (UniProt Q05775); test: pull-down; GST fusions from E. coli immobilized on glutathione-Sepharose beads, incubated with 10 μl of in vitro-synthesized 35S-labeled partner at 4°C for 2 h; washed 3 times with phosphate-buffered saline; SDS-PAGE, autoradiography; only the target purified
[2] = biological target: GST-j/hcr1-NTD [1-135] (S. cerevisiae) (UniProt Q05775); test: as above
[3] = biological target: GST-j/HCR1 (S. cerevisiae) (UniProt Q05775); test: as above
[4] = biological target: b/PRT1-His (S. cerevisiae) (UniProt P06103); test: pull-down; Ni2+-chelation chromatography of yeast whole-cell extracts with His8-tagged b/PRT1 as bait (Ni2+-NTA-silica resin, buffer A, 2 h, 4°C); eluates analysed by Western blot

binding [1]	binding [2]	binding [3]	binding [4]	Substance
no binding	binds	binds	–	35S-labeled wt b/prt1-RRM [1-136] (from UniProt P06103) (domain or fragment)
–	–	–	binds	eIF5 (from UniProt P38431 1-405)
–	–	–	binds	j/HCR1 (wt, untagged, in yeast whole-cell extract) (from UniProt Q05775 1-265)
